Source: PubChem BioAssay AID602196 (INSERM, 2012)
In all, the deposit lists about 23,000 reagents; this is a random part of them. 455 of all reagents (2%) count as active. 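Active includes both protection and sensitisation; some change values fall well beyond the stated -50 to +50 range.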 Unmarked entries are inactive. Further read-outs or replicates are left out here. Not stated in the record: the amount of reagent.

Assay: 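Knock-downs that protect lung cancer cells from cisplatin or sensitise them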
Cell system: human A549 lung cancer cells
Reagents: siRNA pair against human genes
Duration: 48 h transfection before cisplatin; time from cisplatin to read-out not stated
Challenge: cisplatin at a dose killing half of control-siRNA cells; exact dose and duration not given
Read-out: 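Cisplatin cell death as a shift from the 50% death seen with control siRNA; siRNAs toxic or growth-blocking alone scored 0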
Scale: two-siRNA summed score (-2 to +2): higher = both siRNAs protect from cisplatin killing; -2 means both sensitise
Rule for the call: 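siRNAs harmful alone (LDH or WST-1) get 0; others get +1 for less and -1 for more cisplatin killing; genes are active when the two siRNAs give the same sign, summing to ±2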
Meaning of the calls: active = both siRNAs shift cisplatin killing the same way; inactive = no consistent shift, or siRNA harmful alone

two-siRNA summed score (-2 to +2), by target gene and reagent
PPIL2: SID131500812 -1
NIPSNAP3A: SID131509566 0
LOC388949: SID131522280 1
SEC16B: SID131504753 0
TEP1: SID131512151 0
LOC390999: SID131517747 0
PMCHL1: SID131510152 0; SID131521709 1
KRTAP15-1: SID131521103 1
LOC440269: SID131521214 1
ALDH3A2: SID131508309 0
NCAM1: SID131504459 0
FAM216A: SID131521193 1
FLJ46041: SID131516341 0
SLC38A1: SID131509855 0
POTEB3: SID131520027 1
HOXA11: SID131503133 0
DGAT2L6: SID131520073 1
RPS29: SID131522415 1
ZNF77: SID131518509 0
LOC390828: SID131514974 0
LOC442141: SID131518823 0
SLFN5: SID131516726 0; SID131518158 0
LINC00939: SID131506396 0
LOC283412: SID131522648 1
TRPM1: SID131500664 -1
OTOP3: SID131523229 2 (active)
LOC203547: SID131506620 0
TTI1: SID131513668 0
SPANXN3: SID131507624 0
ZNF483: SID131511180 0
FAM186B: SID131507786 0
PHLDA1: SID131508069 0
SPEM2: SID131523069 2 (active)
WFS1: SID131512964 0
LOC442375: SID131507727 0
TEDAR: SID131503788 0
EFHD2: SID131504693 0

Records listed above called active:
two-siRNA summed score (-2 to +2), by target gene and reagent
OTOP3: SID131523229 2 (active)
SPEM2: SID131523069 2 (active)
